{"source": "PubChem BioAssay AID493014", "about": "(National Center for Advancing Translational Sciences (NCATS), 2011)", "note": "Out of some 340,000 compounds screened, about 170 (0.05%) were called active. Inconclusive means that the source gave no clear call. Such entries were picked first, then a sample of the others. Calls follow the shape of the dose curve; as a rule, active = well fitted inhibition curve with a large enough effect in the signal ratio, with a control signal flat (not every such curve was filed as active); inconclusive = small, poorly fitted or top-dose-only effect, or effect the other way, or a change in a side signal; inactive = flat fitted curve, though single readings scatter; the % refers to the signal ratio. A potency beside an inconclusive call is a rough fit, not a confirmed value. Potency is read from the fitted curve at half-maximal effect."}
{"experiment": "qHTS Assay to Find Inhibitors of Chronic Active B-Cell Receptor Signaling;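 as to activity change, negative = inhibition: plate controls were basal doxycycline-induced cells for no effect and cells given 10 µM MG132 for full effect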", "conditions": "ABC-DLBCL IkBa-CBG/CBR reporter, luminescence ratio (green luciferase fused to IkBa over red control in TMD8 lymphoma cells), 4 h; activity change, negative = inhibition: at 46.1 µM (top of the series)", "summary_of_the_method": "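TMD8 human ABC-DLBCL cells with doxycycline-inducible IκBα–green luciferase fusion and unfused red luciferase, in 0.5% FBS medium; compounds up to 46 uM, 4 h at 37C. Green/red luminescence ratio, filter-overlap corrected, fitted to concentration-response curves.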"}
{"smiles": "O=C(c1cc(COc2ccc3c(c2)CCCC3)on1)N1CCCC1", "activity change, negative = inhibition": "inconclusive: -98.3%"}
{"smiles": "COc1ccc2c(c1)CC/C2=N\\OC(=O)c1ccccc1OC", "Potency": "inconclusive: 22.4 µM [falling, single point]"}
{"smiles": "Cc1ccccc1OCC(=O)Nc1ccc(Cc2ccncc2)cc1", "activity change, negative = inhibition": "inconclusive: -10.5%"}
{"smiles": "O=C(O)COc1ccccc1/C=C1\\SC(=S)N(c2cccnc2)C1=O", "activity change, negative = inhibition": "inconclusive: -16.9%"}
{"smiles": "O=C(NNC(=O)c1cc2ccccc2o1)c1ccc(F)cc1", "Potency": "inconclusive: 4.61 µM [falling, single point]"}
{"smiles": "O=C(/C=C/Nc1ccccc1C(F)(F)F)c1ccco1", "activity change, negative = inhibition": "inconclusive: 6.91%"}
{"smiles": "CCn1c(SCC(=O)NCc2ccco2)nc2c(c1=O)SC(C)C2", "note": "(centres undefined)", "activity change, negative = inhibition": "inconclusive: -2.39%"}
{"smiles": "CCOCCCNC(=S)Nc1ccc2nc(N3CCOCC3)cc(C)c2c1", "activity change, negative = inhibition": "inactive"}
{"smiles": "COc1ccccc1CN1CC(C(=O)NCCn2nc(C)cc2C)CCC1=O", "note": "(centres undefined)", "activity change, negative = inhibition": "inconclusive: -14.5%"}
{"smiles": "N#Cc1sc2nc(-c3ccccc3)cc(-c3ccco3)c2c1N", "activity change, negative = inhibition": "inactive"}
{"smiles": "Cn1c(C(=O)N2CCN(C(=O)c3ccco3)CC2)cc2c(=O)n3ccccc3nc21", "activity change, negative = inhibition": "inconclusive: -2.48%"}
{"smiles": "CCOc1ccc(N(CC(=O)Nc2ccc(C)cc2)S(=O)(=O)c2c(C)[nH]c(=O)[nH]c2=O)cc1", "activity change, negative = inhibition": "inactive"}
{"smiles": "Cc1occc1C(=O)N/N=C/c1cccnc1", "Potency": "inconclusive: 35.5 µM [falling, single point]"}
{"smiles": "CCCCCc1cc(=O)oc2c(C(CCN(CC)CC)c3cc(OC)c(OC)c(OC)c3)c(OC)cc(OC)c12", "note": "(centres undefined)", "Potency": "inconclusive: 35.5 µM [falling, single point]"}
{"smiles": "O=C(Nc1cccc(C(F)(F)F)c1)N1CCN(C(=O)Nc2cccc(C(F)(F)F)c2)CC1", "activity change, negative = inhibition": "inconclusive: 24.3%"}
{"smiles": "CCOC(=O)[C@H]1[C@H]2COc3ccc(Cl)cc3[C@@H]2N2C(=O)CN(Cc3ccc(F)cc3)C(=O)[C@@]12C", "activity change, negative = inhibition": "inconclusive: -0.453%"}
{"smiles": "CC(=O)c1c(C)n(C)c2ccc(OC(=O)c3ccco3)cc12", "activity change, negative = inhibition": "inconclusive: 11%"}
{"smiles": "CCCCN(C(=O)C1=CC=CN2CCS(=O)(=O)N=C12)c1ccccc1", "activity change, negative = inhibition": "inconclusive: -3.6%"}
{"smiles": "COC1=C(C)C(O)=C(C(=O)/C=C/c2ccccc2)C(=O)C1(C)C", "activity change, negative = inhibition": "inactive"}
{"smiles": "Clc1ccc(OCc2nc(-c3ccc(Br)o3)no2)cc1", "Potency": "inconclusive: 2.31 µM [rising, partial curve, poor fit]"}
{"smiles": "CCOc1ccc(C(=O)Nc2cc(C)ccn2)cc1", "Potency": "inconclusive: 35.5 µM [rising, single point]"}
{"smiles": "CC(=O)N1c2ccc(S(=O)(=O)N3CCC(C(=O)NCc4ccccc4)CC3)cc2CC1C", "note": "(centres undefined)", "activity change, negative = inhibition": "inconclusive: 20.6%"}
{"smiles": "O=C(COc1ccccc1)NCC(=O)N/N=C/c1cccs1", "activity change, negative = inhibition": "inconclusive: 15%"}
{"smiles": "Cc1ccc(NC(=O)Cc2noc3ccccc23)c(C)c1", "activity change, negative = inhibition": "inconclusive: 3.66%"}
{"smiles": "COc1cccc(NC(=O)COC(=O)/C=C/c2c(C)nn(-c3ccccc3)c2C)c1", "activity change, negative = inhibition": "inconclusive: 5.85%"}
{"smiles": "O=C(Nc1ccc2nc3n(c(=O)c2c1)CCCC3)c1cc([N+](=O)[O-])ccc1F", "Potency": "inconclusive: 23.1 µM [cytotoxic, single point]"}
{"smiles": "O=C(/C=C/c1ccco1)OCn1nnc2ccccc2c1=O", "activity change, negative = inhibition": "inactive"}
{"smiles": "O=C(CSCc1ccc(Cl)cc1)Nc1cc([N+](=O)[O-])ccc1O", "activity change, negative = inhibition": "inconclusive: -25.4%"}
{"smiles": "C/C(=N\\NC(=S)NC1CCCCC1)c1cccs1", "activity change, negative = inhibition": "inconclusive: 3.29%"}
{"smiles": "Cc1ccc(N/N=C/c2ccncc2)cc1", "activity change, negative = inhibition": "inconclusive: 2.19%"}
{"smiles": "CC(C)c1ccc2[nH]c(O)c(N=NC(=S)NCCc3ccccc3)c2c1", "Potency": "inconclusive: 6.51 µM [rising, partial curve, poor fit]"}
{"smiles": "CC(=O)Nc1ccc(S(=O)(=O)N(Cc2ccccc2)c2ccccc2)cc1", "activity change, negative = inhibition": "inconclusive: -1.02%"}
{"smiles": "COc1ccc(-c2cc(C(C)=O)c(C)n2CCC(=O)Nc2cccc(C)c2C)cc1", "Potency": "inconclusive: 1.41 µM [falling, full curve, poor fit]"}
{"smiles": "Cc1csc(Cn2c(CN(C)C)nc3ccccc3c2=O)n1", "activity change, negative = inhibition": "inconclusive: 1.33%"}
{"smiles": "CCNC(=O)CC1C(=O)N(c2ccc(F)cc2)C(=S)N1CCc1ccncc1", "note": "(centres undefined)", "activity change, negative = inhibition": "inactive"}
{"smiles": "c1csc(C2Nc3ccccc3-c3nc4ccccc4n32)c1", "note": "(centres undefined)", "activity change, negative = inhibition": "inactive"}
{"smiles": "Cc1nc(Nc2ccc(C(=O)O)cc2)nc(Nc2ccc(C(=O)O)cc2)c1[N+](=O)[O-]", "Potency": "inconclusive: 22.4 µM [falling, single point]"}
{"smiles": "O=C(Nc1ccc(F)cc1)c1ccc2ncsc2c1", "Potency": "inconclusive: 17.8 µM [falling, single point]"}
{"smiles": "O=C(CCCN1C(=O)c2ccccc2C1=O)NC1CCCCCC1", "Potency": "inconclusive: 8.2 µM [rising, partial curve, poor fit]"}
